Measured values published in US9133219B2, “Bicyclic antibiotics” (Basilea Pharmaceutica AG, priority 2009, dated 2015).
Some entries share one result that the patent states for a list of compounds.

Assays:
Format in all cases: cell-based
[1] = system: Staphylococcus aureus and/or Staphylococcus epidermidis; assay: MIC summary statement, staphylococci; settings: generally, for Staphylococcus aureus and/or Staphylococcus epidermidis
Experimental: (§1) Anti-Microbial Activity Assay.
(§2) The antibacterial activity of compounds is determined by the minimal inhibitory concentration (MIC) method. MICs for all bacteria except pneumococci and Haemophilus influenzae are obtained by broth microdilution with cation-adjusted Mueller-Hinton broth (CAMHB; BBL), according to CLSI guidelines (National Committee for Clinical Laboratory Standards. 2003. Methods for dilution antimicrobial susceptibility tests for bacteria that grow aerobically, 5th ed.; approved standard M7-A6. National Committee for Clinical Laboratory Standards, Wayne, Pa.), with the following modifications: (i) for pneumococci CAMHB is supplemented with 5% (^v/v) horse serum; (ii) for Haemophilus influenzae CAMHB is supplemented with 5% (^v/v) Fildes enrichment (BBL) (Pankuch, G. A., Hoellman, D. B., Lin, G., Bajaksouzian, S., Jacobs, M. R., and Appelbaum, P. C. 1998. Activity of HMR 3647 compared to those of five agents against Haemophilus influenzae and Moraxella catarrhalis by MIC determination and time-kill assay. Antimicrob. Agents Chemother. 42:3032-3034). Microtiter plates are incubated at 35° C. in ambient air for 20 to 24 h, then inspected using an illuminated microtiter plate reader fitted with a magnifying mirror (MIC 2000; Cooke Laboratory Products, Alexandria, Va.). […]

[2] = system: Staphylococcus aureus and/or Staphylococcus epidermidis and/or Streptococcus pneumoniae and/or Escherichia coli; assay: MIC summary statement, staphylococci, pneumococci and E. coli; settings: generally, for S. aureus and/or S. epidermidis and/or S. pneumoniae and/or E. coli; in most case of less than 2 mg/L
Experimental: as §1, §2

[3] = system: Staphylococcus aureus and/or Staphylococcus epidermidis and/or Streptococcus pneumoniae; assay: MIC summary statement, staphylococci and pneumococci; settings: generally, for Staphylococcus aureus and/or Staphylococcus epidermidis and/or Streptococcus pneumoniae
Experimental: as §1, §2

SMILES: COc1ccc2ncc(SCCN3CCC(NCc4ccc5c(c4)NC(=O)CO5)CC3)nc2c1 [Example 40]
- MIC [1]: ≤ 2 µg/mL
- MIC [2]: ≤ 4 µg/mL
- MIC [3]: ≤ 2 µg/mL
